Screen size: about 320,000 compounds; about 2,100 (0.66%) were called active. Inconclusive means that the source gave no clear call. Such entries were picked first, then a sample of the others. Calls come from the whole dose curve; as a rule, active = well fitted inhibition curve with a large enough effect in the signal ratio, with a control signal flat (not every such curve was filed as active); inconclusive = small, poorly fitted or top-dose-only effect, or effect the other way, or a change in a side signal; inactive = flat fitted curve, though single readings scatter; the % refers to the signal ratio. Where the call is inconclusive, the potency comes from a doubtful curve fit.
Experiment: qHTS Assay for Lipid Storage Modulators in Drosophila S3 Cells
Conditions: BODIPY lipid droplet fluorescence, 18-24 h, cells fed with added oleic acid; lipid storage change, negative = inhibition: at 46.1 µM (top of the series) unless noted
Method in brief: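 Drosophila S3 cells loaded with oleic acid (400 uM, as added) and compounds at several concentrations; lipid droplets imaged by 488-nm laser-scanning cytometry, 500–530 nm intensity and object ratio to cell channel. Percent activity normalized to 20 uM Triacsin C.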
% is set by controls: 0 for no effect and ±100 for the full control effect; potency is the fitted concentration of half-maximal effect.

SMILES	Potency	lipid storage change, negative = inhibition
O=C(CSc1nc(=O)n2ccccc2n1)Nc1cccc2ccccc12	inconclusive: 2.06 µM [activator, partial curve]	
Cn1c(CSc2nc3ccccc3s2)nnc1SCC(=O)NCCN1CCOCC1		inconclusive: 4.66%
Cc1cc(C(=O)Nc2ccc(F)cc2F)on1		inconclusive: 30.6%
CCOC(=O)c1sc2nc(C)nc(SC(C)C(=O)N(C)c3ccccc3)c2c1C (configuration not stated)	inconclusive: 29.1 µM [falling, single point]	
CC(=O)c1c(C)[nH]c(C(=O)OCC(=O)N2c3ccccc3NC(=O)C2(C)C)c1C	inconclusive: 29.1 µM [falling, single point]	
Nc1nc(CSC(=S)N2CCOCC2)nc(Nc2ccccc2)n1	inconclusive: 0.651 µM [activator, full curve]	
CSc1ccccc1NC(=S)NC1CCCC1		inconclusive: 24.9%
C=CCn1c(=O)c2c3c(sc2n2c(Nc4ccc(OC)cc4)nnc12)CCCC3		inconclusive: -26%
Cc1nc(SCc2ccccc2)c([N+](=O)[O-])[nH]1	inconclusive: 16.4 µM [activator, partial curve]	
COc1ccc(C(=O)NC2CCN(CC(=O)NCc3cccc(OC)c3)CC2)cc1		inconclusive: 198%
CCn1c(SCC(=O)NC2CCCCC2)nnc1-c1ccccc1F	inconclusive: 29.1 µM [activator, single point]	
N=c1n(CCO)c2ccccc2n1CCOc1ccccc1		inconclusive: -9.03%
O=C(COC(=O)C1=COCCO1)Nc1ccccc1OC(F)F		inconclusive: -27.3%
CCOc1ccccc1N(CC(=O)Nc1ccccc1F)S(=O)(=O)c1ccccc1		inconclusive: -16%
CCCOC(=O)C1=C(C)NC2=C(C(=O)CC(C)(C)C2)C1c1cccnc1 (configuration not stated)		inconclusive: 16.9%
O=c1cnnc(Nc2cccc(F)c2)[nH]1		inconclusive: -2.14%
Cc1cc(C)c(OCC(=O)Nc2nnc(-c3ccco3)o2)c(C)c1		inconclusive: -5.56%
Cc1nn(CC(=O)NNC(=O)c2ccc(Br)cc2)c(C)c1[N+](=O)[O-]	inconclusive: 0.82 µM [activator, full curve, poor fit]	
COc1cccc(CCNc2ccc(N3C(=O)CC(C)C3=O)cc2[N+](=O)[O-])c1 (configuration not stated)		inconclusive: -3.39%
CC(=O)Oc1ccccc1C1=NN(C(=O)/C=C/c2ccccc2)C(c2ccccc2)C1 (configuration not stated)	inconclusive: 29.1 µM [falling, single point]	
CCOC(=O)c1sc(NC(=O)CCN2C(=O)c3ccccc3C2=O)c(C(=O)OCC)c1C		inconclusive: -32.8%
O=C(O)c1cc2c(cc1NC(=O)c1ccccc1OC(F)F)OCCCO2		inconclusive: 363%
CSc1ccc(C(=O)NCC(c2ccco2)N(C)C)cc1[N+](=O)[O-] (configuration not stated)		inconclusive: 42.5%
CCOc1cc(S(=O)(=O)NCc2cccs2)ccc1Cl		inconclusive: 36.4%
CCOc1ccc(-c2ccc(SCC(=O)NCC3CCCO3)nn2)cc1 (configuration not stated)		inconclusive: 17.3%
CC1(C)C(=O)Nc2ccccc2N1C(=O)CN1C(=O)C(=O)N(C2CCCC2)C1=O		inconclusive: 13.3%

SMILES	Potency	lipid storage change, negative = inhibition
O=C(Cn1nc(-c2ccc(F)cc2)ccc1=O)Nc1ccc(C(=O)NC2CC2)cc1	inconclusive: 1.3 µM [rising, full curve]	
CC1CN/C(=C\C(=O)c2ccc(Br)cc2)C(=O)N1 (configuration not stated)		inconclusive: 0.0934%
COc1ccc(Cc2nnc(NC(=O)c3c(-c4ccccc4)noc3C)s2)cc1OC		inconclusive: 24.8%
CN1CCN(CCCNC(=O)c2cn(C3CCCCC3)c(=O)c3c2c2ccccc2n3C)CC1		inconclusive: -18.3%
Cc1nc2ccccc2c2oc(C(=O)N3CCN(C(=O)c4ccco4)CC3)cc12		inconclusive: -31.7%
O=C1CCCC/C1=C/Nc1ccc(C(=O)O)cc1		inconclusive: 19.9%
COc1ccc(C(C)=O)cc1COc1ccccc1[N+](=O)[O-]		inconclusive: 26.1%
O=C(O)CN(CCO)CCN(CC(=O)O)CC(=O)O		inconclusive: -7.49%
Cc1ccc(C(=O)N2CCC(Cc3ccccc3)CC2)cc1[N+](=O)[O-]		inactive
Cc1ccc2c(c1)N(CC(=O)NC1CCCC1)C(=O)CO2		inconclusive: 53.2%
Cc1onc(-c2ccccc2)c1C(=O)N1CCN(c2ncccc2C(F)(F)F)CC1		inconclusive: -39.6%
COc1ccc(-c2noc(CCCC(=O)N3CCOCC3)n2)cc1		inconclusive: 5.99%
CCOc1ccc(C(=O)C[n+]2cccc3cc(C)ccc32)cc1	inconclusive: 0.517 µM [falling, full curve, poor fit]	
Cc1ccc(N(Cc2ccccc2)C(=O)CN2C(=O)NC3(CCCC3)C2=O)cc1		inconclusive: 14.6%
Cc1nc2ccccc2n1S(=O)(=O)c1ccc(Br)cc1		inconclusive: 22%
CCn1c(C)nc2cc(C(=O)NNC(=S)Nc3ccccc3)ccc21		inconclusive: 6.94%
O=S(=O)(c1ccc(Cl)cc1)N1CCSC1c1ccco1 (configuration not stated)		inconclusive: 9.33%
CCN(C(=O)COC(=O)c1cccnc1Nc1ccccc1F)C1CCS(=O)(=O)C1 (configuration not stated)		inconclusive: 16.5%
CN1C(=O)c2ccccc2N(C)C1c1ccc(F)cc1 (configuration not stated)		inconclusive: 23.6%
COc1ccc(NC(=O)c2ccc3nc(C)sc3c2)cc1		inconclusive: 47.7%
COc1ccc(NC(=O)c2cc3n(n2)C(C(F)(F)F)CC(c2ccc(OC)cc2)N3)cc1 (configuration not stated)		inconclusive: 25.7%
CCc1ccc(C(CNC(=O)c2ccc3c(=O)n(-c4ccccc4F)c(=S)[nH]c3c2)N(C)C)cc1 (configuration not stated)		inconclusive: 11.5%
CC(C)CCC(CC(C)O)C(=O)NNC(=S)Nc1ccccc1 (configuration not stated)		inconclusive: -4.25%
COc1cccc(CN2C(=NC(=O)CCC3CCCC3)SC3CS(=O)(=O)CC32)c1 (configuration not stated)		inconclusive: -31.7%
CCS(=O)(=O)N1CCCC(C(=O)NCCCN(C)Cc2ccccc2)C1 (configuration not stated)	inconclusive: 18.4 µM [cytotoxic, single point]	
Cc1nn(-c2ccccc2)c2nc(-c3ccco3)cc(C(=O)O)c12	inconclusive: 3.66 µM [falling, single point]	

SMILES	Potency	lipid storage change, negative = inhibition
Cc1ccc(N(CC(=O)NC2CCCC2)C(=O)c2ccc(C)s2)cc1		inconclusive: -29.2%
C=CCn1c(=O)[nH]c2cc(C(=O)N3CCN(c4cc(C)ccc4C)CC3)ccc2c1=O	inconclusive: 6.51 µM [falling, single point]	
CCCCC(=Nc1ccccc1OC)C1=C(O)CC(c2ccccc2)CC1=O (configuration not stated)		inconclusive: 22.1%
CC(C)(C)C(=O)Nc1ccc(C(=O)NNC(=O)c2ccccc2)cc1		inconclusive: 6.49%
CCCCc1nc(NCCN2CCOCC2)c(C#N)c2c1COC(C)(C)C2		inconclusive: 9.66%
O=c1cc(O)nc(SC23CC4CC(CC(C4)C2)C3)[nH]1		inconclusive: -12.6%
CCOC(=O)c1cc(CC)sc1NC(=O)CN1CCN(C(=O)c2ccco2)CC1	inconclusive: 16.4 µM [falling, partial curve, poor fit]	
C=CCOc1ccc(/C(CC)=N/O)c(OC)c1	inconclusive: 29.1 µM [activator, single point]	
O=C(NNC(=O)c1n[nH]c2ccccc12)c1ccccc1		inconclusive
O=C(NCc1ccc(Cl)cc1)C(=O)NCC1OCCN1S(=O)(=O)c1ccc2c(c1)OCCO2 (configuration not stated)	inconclusive: 7.31 µM [activator, partial curve]	
Cc1ccc(S(=O)(=O)NCc2nc3ccccc3[nH]2)cc1		inconclusive: 7.93%
O=C1C2CCCN2C(c2ccc(F)c(F)c2)N1c1cccc(Cl)c1 (configuration not stated)		inconclusive: 37.6%
COc1ccc(NCC(=O)Nc2ccc(C#N)cc2)cc1Cl	inconclusive: 29.1 µM [rising, single point]	
CC(=O)Nc1ccc(NC(=O)CSc2nnc(NC(=O)c3cccc(F)c3)s2)cc1		inconclusive: 0.307%
O=C(NCc1ccncc1)c1ccc(NS(=O)(=O)c2ccc(F)cc2)cc1	inconclusive: 3.66 µM [falling, single point]	
CCOC(=O)C1(Cc2cccc(F)c2)CCN(C(=O)C2CCC2)CC1	inconclusive: 32.6 µM [activator, single point]	
CC(C)CN(C(=O)COC(=O)/C=C/c1ccc(Cl)c(Cl)c1)c1c(N)n(Cc2ccccc2)c(=O)[nH]c1=O		inconclusive
CC(C)N1C(=S)SC(C)(C)C1NO (configuration not stated)		inconclusive: -13.5%
O=C(CSc1nc(-c2ccccc2)cc(C(F)(F)F)n1)NCc1cccs1	inconclusive: 0.092 µM [falling, partial curve, poor fit]	
O=C(CN1C(=O)c2ccccc2C1=O)NCc1ccc(C(=O)O)cc1		inconclusive: -7.36%
Cc1cccc(NS(=O)(=O)c2ccc(C(=O)NCC3CCCO3)cc2)c1C (configuration not stated)	inconclusive: 0.731 µM [activator, single point]	
COc1ccc(N2Cc3cccc(C(=O)N4CCN(C(=O)c5ccco5)CC4)c3C2=O)cc1	inconclusive: 1.03 µM [falling, partial curve]	
CCOc1c(Cl)cc(C(=O)NCCN2CCCCC2)cc1Cl	inconclusive: 6.51 µM [activator, single point]	
Cc1nnc(SCC(=O)N(C)C2CCCCC2)s1	inconclusive: 0.116 µM [falling, full curve, poor fit]	
CC(C)Cn1nc(NC(=O)C(C)(C)C)c2cc3ccccc3nc21	inconclusive: 32.6 µM [activator, single point]	

Source: PubChem BioAssay AID2685 (National Center for Advancing Translational Sciences (NCATS), 2010)
